Source: PubChem BioAssay AID1259424 (University of Nebraska Medical Center, 2018)

Assay: 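Seek colon cancer survival genes behaving like KSR1, using a six-gene signature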 (primary screen)
System: human HCT116 colon cancer cells
Reagent: siRNA pool against human genes, 50 nM
Read-out: 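Log2 levels of six mRNAs (branched-DNA multiplex), adjusted by two reference genes and the non-targeting median, then scored against the average KSR1 knockdown pattern as Pearson r and euclidean distance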
Scale: mean correlation with KSR1 profile and KSR1 correlation: higher = expression change more like KSR1 knockdown; mean distance from KSR1 profile: higher = expression change less like KSR1 knockdown
The deposit covers about 14,000 reagents; shown is an unselected part. 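Higher correlation or smaller distance means closer resemblance to KSR1 loss; control wells, including KSR1 knockdowns, recur on many plates.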 Some reagents were tested in more than one well and are listed for each. Not all columns of the deposit are shown. The record does not give: the time to read-out.

no.	Gene	mean correlation with KSR1 profile	mean distance from KSR1 profile	KSR1 correlation, replicate 1
1	CAST (calpastatin)	-0.377	1.77	-0.365
2	MINAR1 (membrane integral NOTCH2 associated receptor 1)	0.807	1.63	0.75
3	UBE2E2 (ubiquitin conjugating enzyme E2 E2)	-0.285	2.37	-0.569
4	UBE2E2 (ubiquitin conjugating enzyme E2 E2)	0.349	1.6	0.556
5	PRR34 (PRR34 long non-coding RNA)	-0.206	3.03	-0.188
6	STK32C (serine/threonine kinase 32C)	0.547	2.74	0.607
7	BRD2 (bromodomain containing 2)	-0.101	2.22	0.129
8	LRFN2	-0.464	3.15	-0.396
9	INTS11 (integrator complex subunit 11)	-0.369	2	-0.209
10	COX7A2P2 (cytochrome c oxidase subunit 7A2 pseudogene 2)	-0.335	1.99	-0.301
11	PHF10 (PHD finger protein 10)	-0.123	2.94	-0.097
12	SAP30BP (SAP30 binding protein)	-0.404	2.63	-0.132
13	ACSS2 (acyl-CoA synthetase short chain family member 2)	0.136	2.07	0.182
14	CHP1 (calcineurin like EF-hand protein 1)	0.211	1.76	0.254
15	SMAD5 (SMAD family member 5)	-0.423	2.81	-0.425
16	PSENEN (presenilin enhancer, gamma-secretase subunit)	0.805	1.79	0.733
17	CLK2 (CDC like kinase 2)	0.223	1.69	0.227
18	MTERF3 (mitochondrial transcription termination factor 3)	0.0669	1.4	0.0136
19	PTPRF (protein tyrosine phosphatase receptor type F)	-0.184	1.32	0.0917
20	ARHGAP11A (Rho GTPase activating protein 11A)	0.769	3.5	0.753
21	WDR35 (WD repeat domain 35)	0.0501	1.76	-0.0383
22	POLR2E (RNA polymerase II, I and III subunit E)	-0.753	3.04	-0.653
23	RRAGC (Ras related GTP binding C)	0.454	1.23	0.25
24	NOS1AP (nitric oxide synthase 1 adaptor protein)	-0.233	2.8	-0.186
25	HSPA4 (heat shock protein family A (Hsp70) member 4)	0.144	1.58	0.198
26	TMEM140 (transmembrane protein 140)	-0.304	2.41	-0.182
27	PARL (presenilin associated rhomboid like)	-0.319	2.25	-0.448
28	HCK (HCK proto-oncogene, Src family tyrosine kinase)	0.174	2.34	0.551
29	RTCB (RNA 2',3'-cyclic phosphate and 5'-OH ligase)	-0.623	3	-0.645
30	HRAS (HRas proto-oncogene, GTPase)	0.219	1.14	0.365
31	ENTR1 (endosome associated trafficking regulator 1)	-0.379	2.83	-0.258

The list goes on (4 carried over from the part before).
no.	Gene	mean correlation with KSR1 profile	mean distance from KSR1 profile	KSR1 correlation, replicate 1
28	HCK (HCK proto-oncogene, Src family tyrosine kinase)	0.174	2.34	0.551
29	RTCB (RNA 2',3'-cyclic phosphate and 5'-OH ligase)	-0.623	3	-0.645
30	HRAS (HRas proto-oncogene, GTPase)	0.219	1.14	0.365
31	ENTR1 (endosome associated trafficking regulator 1)	-0.379	2.83	-0.258
32	GABRG2 (gamma-aminobutyric acid type A receptor subunit gamma2)	-0.0682	1.99	0.085
33	ARID3B (AT-rich interaction domain 3B)	0.129	2.3	0.224
34	S1PR3 (sphingosine-1-phosphate receptor 3)	0.455	1.63	0.393
35	PPP1R2 (protein phosphatase 1 regulatory inhibitor subunit 2)	0.453	3.27	0.588
36	YBX1 (Y-box binding protein 1)	-0.808	2.63	-0.927
37	CUL5 (cullin 5)	-0.314	1.73	-0.526
38	CTDSPL2 (CTD small phosphatase like 2)	0.0534	1.45	0.0718
39	SACS (sacsin molecular chaperone)	-0.464	1.62	-0.305
40	GPR142 (G protein-coupled receptor 142)	-0.385	4.3	-0.344
41	TAF5L (TATA-box binding protein associated factor 5 like)	-0.242	1.89	-0.137
42	GHDC (GH3 domain containing)	-0.0519	1.85	-0.38
43	LATS1 (large tumor suppressor kinase 1)	0.759	2.21	0.815
44	HIF1A (hypoxia inducible factor 1 subunit alpha)	0.645	0.847	0.575
45	HHLA1 (HHLA1 neighbor of OC90)	0.677	1.88	0.833
46	KISS1 (KiSS-1 metastasis suppressor)	0.642	1.39	-0.0513
47	RAB3B (RAB3B, member RAS oncogene family)	-0.462	1.56	-0.482
48	ICAM5 (intercellular adhesion molecule 5)	0.554	1.85	0.57
49	CRISP1 (cysteine rich secretory protein 1)	-0.733	3.91	-0.667
50	GSTP1 (glutathione S-transferase pi 1)	-0.21	1.2	-0.0241
